In the supplement of paper PMC10849652:
Some of the results follow.

Amino acid sequences for entries named in this document (tags omitted). A change or cut given only in a name is not applied to a line headed by its entry.
UniProt Q9UHB6: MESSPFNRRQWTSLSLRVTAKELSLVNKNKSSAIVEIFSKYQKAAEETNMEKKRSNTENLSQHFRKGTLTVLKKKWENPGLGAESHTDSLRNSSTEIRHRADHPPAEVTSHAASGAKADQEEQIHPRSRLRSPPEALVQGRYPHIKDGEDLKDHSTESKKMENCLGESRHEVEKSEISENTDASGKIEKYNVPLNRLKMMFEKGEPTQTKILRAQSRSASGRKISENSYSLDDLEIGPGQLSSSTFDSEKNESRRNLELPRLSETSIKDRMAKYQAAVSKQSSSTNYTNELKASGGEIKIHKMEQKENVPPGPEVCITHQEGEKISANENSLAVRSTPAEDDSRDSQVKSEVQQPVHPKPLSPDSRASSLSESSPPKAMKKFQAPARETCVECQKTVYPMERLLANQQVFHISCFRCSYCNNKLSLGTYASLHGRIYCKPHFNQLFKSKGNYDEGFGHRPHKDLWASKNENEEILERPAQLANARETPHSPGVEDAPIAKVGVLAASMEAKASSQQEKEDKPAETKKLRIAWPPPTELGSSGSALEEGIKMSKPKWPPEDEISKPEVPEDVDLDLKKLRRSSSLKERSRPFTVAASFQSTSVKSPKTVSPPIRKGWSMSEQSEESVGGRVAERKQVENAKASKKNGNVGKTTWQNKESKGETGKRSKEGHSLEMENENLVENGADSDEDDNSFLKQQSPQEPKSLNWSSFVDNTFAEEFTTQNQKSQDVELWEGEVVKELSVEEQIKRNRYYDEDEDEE
UniProt Q6P5S2: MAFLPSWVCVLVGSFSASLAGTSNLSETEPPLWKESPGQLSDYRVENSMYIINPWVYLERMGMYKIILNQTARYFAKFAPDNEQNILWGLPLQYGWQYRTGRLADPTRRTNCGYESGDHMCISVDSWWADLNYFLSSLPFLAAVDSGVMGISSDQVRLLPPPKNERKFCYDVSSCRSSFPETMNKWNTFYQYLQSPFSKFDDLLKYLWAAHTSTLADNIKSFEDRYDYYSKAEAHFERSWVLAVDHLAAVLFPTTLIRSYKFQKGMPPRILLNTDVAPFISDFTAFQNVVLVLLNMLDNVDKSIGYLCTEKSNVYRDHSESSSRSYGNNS
UniProt Q96AG4: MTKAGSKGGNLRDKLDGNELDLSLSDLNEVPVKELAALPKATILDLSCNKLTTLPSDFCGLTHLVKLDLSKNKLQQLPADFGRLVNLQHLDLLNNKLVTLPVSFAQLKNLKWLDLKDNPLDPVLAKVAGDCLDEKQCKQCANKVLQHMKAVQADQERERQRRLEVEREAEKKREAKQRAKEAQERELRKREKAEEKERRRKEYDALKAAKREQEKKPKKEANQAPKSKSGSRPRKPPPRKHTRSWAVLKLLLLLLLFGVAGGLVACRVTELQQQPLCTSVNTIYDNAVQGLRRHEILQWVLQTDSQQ
UniProt Q9H008: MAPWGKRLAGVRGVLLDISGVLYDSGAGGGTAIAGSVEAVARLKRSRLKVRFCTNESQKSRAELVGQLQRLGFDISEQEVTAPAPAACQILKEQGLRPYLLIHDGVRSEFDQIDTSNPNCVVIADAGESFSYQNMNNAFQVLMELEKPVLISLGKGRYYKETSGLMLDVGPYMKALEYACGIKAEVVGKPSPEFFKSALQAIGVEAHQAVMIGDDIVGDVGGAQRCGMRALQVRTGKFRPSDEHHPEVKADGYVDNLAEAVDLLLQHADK
UniProt Q5T3J3: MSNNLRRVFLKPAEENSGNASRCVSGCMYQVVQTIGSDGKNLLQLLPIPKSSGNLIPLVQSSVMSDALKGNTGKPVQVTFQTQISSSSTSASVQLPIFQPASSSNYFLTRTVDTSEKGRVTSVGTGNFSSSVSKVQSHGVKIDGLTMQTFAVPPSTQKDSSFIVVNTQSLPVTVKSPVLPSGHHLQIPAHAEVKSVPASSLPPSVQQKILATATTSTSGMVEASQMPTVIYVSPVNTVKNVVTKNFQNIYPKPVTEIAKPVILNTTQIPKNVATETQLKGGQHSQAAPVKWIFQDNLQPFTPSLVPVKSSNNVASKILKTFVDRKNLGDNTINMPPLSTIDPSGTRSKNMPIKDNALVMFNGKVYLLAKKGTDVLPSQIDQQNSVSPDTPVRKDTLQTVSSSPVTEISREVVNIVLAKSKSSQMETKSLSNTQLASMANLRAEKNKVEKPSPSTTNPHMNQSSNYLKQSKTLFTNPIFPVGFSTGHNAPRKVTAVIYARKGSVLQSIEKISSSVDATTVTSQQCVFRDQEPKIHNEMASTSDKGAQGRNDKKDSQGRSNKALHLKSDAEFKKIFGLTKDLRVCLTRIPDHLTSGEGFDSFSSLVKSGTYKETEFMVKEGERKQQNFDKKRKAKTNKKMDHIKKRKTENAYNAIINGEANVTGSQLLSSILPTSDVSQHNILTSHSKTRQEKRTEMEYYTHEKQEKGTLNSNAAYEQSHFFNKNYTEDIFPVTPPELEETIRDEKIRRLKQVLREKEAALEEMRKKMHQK
UniProt Q6P1Q0: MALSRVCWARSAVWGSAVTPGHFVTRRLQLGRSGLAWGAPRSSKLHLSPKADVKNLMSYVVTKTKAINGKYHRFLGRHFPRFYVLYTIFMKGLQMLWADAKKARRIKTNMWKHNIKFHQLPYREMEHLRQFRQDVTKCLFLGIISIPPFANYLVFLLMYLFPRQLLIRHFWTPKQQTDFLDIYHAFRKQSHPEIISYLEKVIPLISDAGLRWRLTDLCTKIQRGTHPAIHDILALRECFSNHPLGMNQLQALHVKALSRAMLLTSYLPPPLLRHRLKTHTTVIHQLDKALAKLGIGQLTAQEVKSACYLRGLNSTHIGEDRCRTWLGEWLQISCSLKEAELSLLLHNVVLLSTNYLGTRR
UniProt Q15031: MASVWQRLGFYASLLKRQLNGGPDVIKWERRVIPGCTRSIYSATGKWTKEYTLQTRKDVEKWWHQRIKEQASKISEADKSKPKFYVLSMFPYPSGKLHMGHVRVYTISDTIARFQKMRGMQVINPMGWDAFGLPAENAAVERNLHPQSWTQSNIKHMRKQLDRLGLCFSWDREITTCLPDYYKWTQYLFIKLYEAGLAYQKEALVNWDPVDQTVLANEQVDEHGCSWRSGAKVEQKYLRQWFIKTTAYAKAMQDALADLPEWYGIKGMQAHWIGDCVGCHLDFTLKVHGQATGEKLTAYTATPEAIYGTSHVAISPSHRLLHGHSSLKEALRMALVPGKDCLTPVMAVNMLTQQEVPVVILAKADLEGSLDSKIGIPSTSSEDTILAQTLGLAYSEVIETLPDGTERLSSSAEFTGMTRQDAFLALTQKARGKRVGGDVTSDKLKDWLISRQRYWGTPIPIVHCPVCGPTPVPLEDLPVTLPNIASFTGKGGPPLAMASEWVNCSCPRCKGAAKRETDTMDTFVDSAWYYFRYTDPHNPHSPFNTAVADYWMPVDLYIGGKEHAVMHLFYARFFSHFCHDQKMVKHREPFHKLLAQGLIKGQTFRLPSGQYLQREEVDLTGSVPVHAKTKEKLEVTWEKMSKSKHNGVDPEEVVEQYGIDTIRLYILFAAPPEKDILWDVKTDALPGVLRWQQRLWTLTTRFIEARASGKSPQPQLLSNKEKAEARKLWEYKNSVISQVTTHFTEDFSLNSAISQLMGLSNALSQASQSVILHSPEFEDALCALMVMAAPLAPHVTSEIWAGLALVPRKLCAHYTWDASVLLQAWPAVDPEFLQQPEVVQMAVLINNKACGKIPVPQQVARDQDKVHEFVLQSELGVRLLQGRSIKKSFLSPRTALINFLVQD
UniProt Q9Y333: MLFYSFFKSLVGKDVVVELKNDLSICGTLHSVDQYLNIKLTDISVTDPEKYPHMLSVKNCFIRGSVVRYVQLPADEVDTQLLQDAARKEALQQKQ
UniProt P53671: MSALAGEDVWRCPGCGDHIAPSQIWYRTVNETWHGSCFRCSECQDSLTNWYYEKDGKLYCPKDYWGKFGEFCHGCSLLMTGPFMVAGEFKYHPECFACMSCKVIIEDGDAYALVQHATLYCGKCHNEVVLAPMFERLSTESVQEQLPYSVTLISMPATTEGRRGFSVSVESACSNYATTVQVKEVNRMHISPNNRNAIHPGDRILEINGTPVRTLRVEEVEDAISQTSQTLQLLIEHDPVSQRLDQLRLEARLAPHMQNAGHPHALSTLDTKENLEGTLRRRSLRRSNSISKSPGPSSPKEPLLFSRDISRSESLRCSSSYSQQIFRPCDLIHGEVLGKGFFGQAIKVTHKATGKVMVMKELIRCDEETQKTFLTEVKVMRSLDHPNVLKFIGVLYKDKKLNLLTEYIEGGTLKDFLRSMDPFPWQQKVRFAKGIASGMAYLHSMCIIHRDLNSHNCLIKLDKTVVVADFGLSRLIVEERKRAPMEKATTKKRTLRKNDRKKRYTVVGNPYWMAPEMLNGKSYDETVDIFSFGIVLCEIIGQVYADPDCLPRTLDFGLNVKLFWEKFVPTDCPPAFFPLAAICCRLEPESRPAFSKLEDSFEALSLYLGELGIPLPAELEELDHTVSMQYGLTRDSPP
UniProt Q9NUP9: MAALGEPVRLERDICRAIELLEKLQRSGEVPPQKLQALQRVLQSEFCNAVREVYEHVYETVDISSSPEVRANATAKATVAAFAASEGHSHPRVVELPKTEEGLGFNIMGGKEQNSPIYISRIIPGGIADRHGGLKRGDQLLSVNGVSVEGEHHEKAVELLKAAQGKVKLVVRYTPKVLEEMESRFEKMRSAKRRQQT
UniProt O94898: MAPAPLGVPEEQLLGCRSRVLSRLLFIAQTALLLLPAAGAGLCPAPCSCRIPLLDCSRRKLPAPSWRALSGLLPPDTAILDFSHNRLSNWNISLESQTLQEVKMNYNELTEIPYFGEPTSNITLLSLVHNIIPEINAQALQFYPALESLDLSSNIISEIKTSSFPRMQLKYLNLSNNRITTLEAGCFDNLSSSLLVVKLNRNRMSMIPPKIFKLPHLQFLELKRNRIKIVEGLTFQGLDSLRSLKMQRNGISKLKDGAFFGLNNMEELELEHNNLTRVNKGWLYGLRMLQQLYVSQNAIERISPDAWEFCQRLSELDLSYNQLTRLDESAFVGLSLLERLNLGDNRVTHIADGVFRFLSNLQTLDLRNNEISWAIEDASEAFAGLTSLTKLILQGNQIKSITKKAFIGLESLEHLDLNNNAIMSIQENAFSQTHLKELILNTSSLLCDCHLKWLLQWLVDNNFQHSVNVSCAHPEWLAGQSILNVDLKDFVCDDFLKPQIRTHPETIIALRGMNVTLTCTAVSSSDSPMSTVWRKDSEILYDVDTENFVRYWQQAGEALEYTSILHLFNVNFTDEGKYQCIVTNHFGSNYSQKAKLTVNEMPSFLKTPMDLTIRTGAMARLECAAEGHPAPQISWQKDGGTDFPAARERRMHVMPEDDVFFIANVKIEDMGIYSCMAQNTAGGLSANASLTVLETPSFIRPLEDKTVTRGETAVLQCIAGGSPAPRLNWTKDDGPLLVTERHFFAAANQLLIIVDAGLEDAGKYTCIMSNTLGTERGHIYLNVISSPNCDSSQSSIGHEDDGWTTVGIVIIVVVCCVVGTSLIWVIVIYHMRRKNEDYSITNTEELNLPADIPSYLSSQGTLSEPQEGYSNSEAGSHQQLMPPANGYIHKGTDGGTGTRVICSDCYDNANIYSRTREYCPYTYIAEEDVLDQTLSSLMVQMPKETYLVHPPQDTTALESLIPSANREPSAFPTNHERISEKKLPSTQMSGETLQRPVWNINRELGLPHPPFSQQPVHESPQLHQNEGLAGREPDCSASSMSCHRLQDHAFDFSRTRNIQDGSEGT
UniProt O95777: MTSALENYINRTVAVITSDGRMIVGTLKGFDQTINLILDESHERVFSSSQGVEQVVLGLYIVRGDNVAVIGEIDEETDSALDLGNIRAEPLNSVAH

Legend:
Assay in all cases: log2 fold change, soluble protein after heating vs DMSO (PISA); higher = thermal stabilisation; K562 lysate, 10 uM; active = over 0.2 and 3.5 SD of the protein, either way, in both replicates (recomputed)
[1] = compound: Cc1cn(-c2cc(NC(=O)c3ccc(C)c(Nc4nccc(-c5cccnc5)n4)c3)cc(C(F)(F)F)c2)cn1 [nilotinib]
How it was run: (§1)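 Quantification was by TMTpro 16plex LC-MS/MS with equalised channel sums, applied to the supernatant after 21,000xg for 90 min. Samples were crude K562 extract at 1 mg/mL protein in PBS pH 7.4 with 1 mM MgCl2, treated with 10 μM compound for 30 min, heated for 3 min across 48°C-58°C, pooled and brought to 0.5% NP-40 at 4°C. Values are log-two fold changes in thermal stability relative to solvent controls, from duplicates.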

[2] = compound: Cc1nc(Nc2n[nH]c3c2CN(C(=O)N[C@H](CN(C)C)c2ccccc2)C3(C)C)c2sccc2n1
How it was run: as §1

[3] = compound: Cc1nc(Nc2ncc(C(=O)Nc3c(C)cccc3Cl)s2)cc(N2CCN(CCO)CC2)n1 [dasatinib]
How it was run: as §1

[4] = compound: Cc1ncc(-c2ccnc(Nc3ccc(S(C)(=O)=O)cc3)n2)n1C(C)C
How it was run: as §1

[5] = compound: Cn1cc(-c2ccc3c(c2)CCN3C(=O)Cc2cccc(C(F)(F)F)c2)c2c(N)ncnc21
How it was run: as §1

[6] = compound: Cn1cc(CNCC2CCN(c3ncc(C(=O)NO)cn3)CC2)c2ccccc21 [quisinostat]
How it was run: as §1

[7] = compound: Cn1cncc1[C@@](N)(c1ccc(Cl)cc1)c1ccc2c(c1)c(-c1cccc(Cl)c1)cc(=O)n2C [tipifarnib]
How it was run: as §1

[8] = compound: NC(=O)Nc1cc(-c2cccc(F)c2)sc1C(=O)N[C@H]1CCCNC1
How it was run: as §1

[9] = compound: NC(=O)c1cnc(N[C@@H]2CCCC[C@@H]2N)nc1Nc1cccc(-n2nccn2)c1
How it was run: as §1

[10] = compound: NC1(c2ccc(-c3nc4ccn5c(=O)[nH]nc5c4cc3-c3ccccc3)cc2)CCC1
How it was run: as §1

Measured: log2 fold change

LIMA1 isoform 4 (UniProt Q9UHB6)
inactive: [1] 0.032 | [2] 0.001 | [3] 0.033 | [4] -0.008 | [5] 0.007 | [6] 0.011 | [7] 0.018 | [8] 0.013 | [9] 0.017 | [10] -0.008

LEO1 (UniProt Q8WVC0)
inactive: [1] -0.018 | [2] -0.008 | [3] 0.003 | [4] 0.005 | [5] -0.002 | [6] 0.07 | [7] 0.004 | [8] -0.03 | [9] 0 | [10] 0.001

LEG1 (UniProt Q6P5S2)
inactive: [1] -0.006 | [2] -0.009 | [3] -0.066 | [4] 0.155 | [5] 0.213 | [6] -0.474 | [7] 0.245 | [8] -0.024 | [9] -0.05 | [10] -0.022

LRRC59 (UniProt Q96AG4)
inactive: [1] 0.014 | [2] -0.006 | [3] -0.013 | [4] 0.011 | [5] -0.036 | [6] 0.058 | [7] -0.008 | [8] -0.057 | [9] -0.001 | [10] -0.014

LHPP (UniProt Q9H008)
inactive: [1] -0.059 | [2] 0.056 | [3] 0.047 | [4] 0.118 | [5] 0.011 | [6] -0.05 | [7] 0.029 | [8] -0.002 | [9] 0.014 | [10] 0.008

LRIF1 (UniProt Q5T3J3)
inactive: [1] -0.147 | [2] 0.086 | [3] 0.047 | [4] 0.022 | [5] -0.011 | [6] 0 | [7] 0.057 | [8] -0.008 | [9] -0.163 | [10] -0.056

LETMD1 isoform 7 (UniProt Q6P1Q0)
inactive: [1] 0.088 | [2] -0.028 | [3] -0.174 | [4] -0.038 | [5] 0.005 | [6] 0.007 | [7] -0.06 | [8] -0.025 | [9] 0.009 | [10] 0.011

LARS2 (UniProt Q15031)
inactive: [1] -0.002 | [2] 0.048 | [3] -0.075 | [4] -0.008 | [5] 0.065 | [6] 0.028 | [7] -0.085 | [8] 0.089 | [9] 0.044 | [10] -0.036

LSM2 (UniProt Q9Y333)
inactive: [1] 0 | [2] -0.03 | [3] -0.009 | [4] 0.055 | [5] 0.004 | [6] -0.055 | [7] 0.049 | [8] 0.016 | [9] -0.027 | [10] -0.005

Two records drawn at random from those above, as already listed:
LARS2 (UniProt Q15031)
inactive: [1] -0.002 | [2] 0.048 | [3] -0.075 | [4] -0.008 | [5] 0.065 | [6] 0.028 | [7] -0.085 | [8] 0.089 | [9] 0.044 | [10] -0.036

LSM2 (UniProt Q9Y333)
inactive: [1] 0 | [2] -0.03 | [3] -0.009 | [4] 0.055 | [5] 0.004 | [6] -0.055 | [7] 0.049 | [8] 0.016 | [9] -0.027 | [10] -0.005

Following part:

LIMK2 isoform 3 (UniProt P53671)
inactive: [1] 0.074 | [2] 0.06 | [3] -0.126 | [4] 0.07 | [5] -0.099 | [6] -0.003 | [7] -0.05 | [8] -0.066 | [9] -0.064 | [10] 0.008

LIN7C (UniProt Q9NUP9)
inactive: [1] 0.003 | [2] -0.014 | [3] 0.004 | [4] -0.025 | [5] 0 | [6] -0.026 | [7] 0.028 | [8] -0.012 | [9] 0.007 | [10] 0.022

LRIG2 (UniProt O94898)
inactive: [1] -0.041 | [2] -0.006 | [3] 0.017 | [4] -0.106 | [5] -0.061 | [6] -0.088 | [7] 0.001 | [8] -0.007 | [9] 0.026 | [10] -0.084

LSM8 (UniProt O95777)
inactive: [1] 0.132 | [2] 0 | [3] 0.012 | [4] 0.045 | [5] 0.004 | [6] -0.043 | [7] 0.048 | [8] -0.02 | [9] -0.035 | [10] 0.033
